Results reported in patent US9469650B2, “Melampomagnolide B derivatives” (BOARD OF TRUSTEES OF THE UNIVERSITY OF ARKANSAS, priority 2013, dated 2016).
The name of at least one read-out is uncertain.

Experiments:
NCI-H23 = experiment: panel of 60 human tumor cell lines, growth inhibition (Non-Small Cell Lung Cancer)
MOLT-4 = experiment: panel of 60 human tumor cell lines, growth inhibition (Leukemia)
UACC-62 = experiment: panel of 60 human tumor cell lines, growth inhibition (Melanoma)
SK-OV-3 = experiment: panel of 60 human tumor cell lines, growth inhibition (Ovarian Cancer)
MCF7 = experiment: panel of 60 human tumor cell lines, growth inhibition (Breast Cancer)
ACHN = experiment: panel of 60 human tumor cell lines, growth inhibition (Renal Cancer)
HCT-15 = experiment: panel of 60 human tumor cell lines, growth inhibition (Colon Cancer)
SW-620 = experiment: as above
U251 = experiment: panel of 60 human tumor cell lines, growth inhibition (CNS Cancer)
NCI-H226 = experiment: panel of 60 human tumor cell lines, growth inhibition (Non-Small Cell Lung Cancer)
OVCAR-8 = experiment: panel of 60 human tumor cell lines, growth inhibition (Ovarian Cancer)
NCI-H522 = experiment: panel of 60 human tumor cell lines, growth inhibition (Non-Small Cell Lung Cancer)
BT-549 = experiment: panel of 60 human tumor cell lines, growth inhibition (Breast Cancer); settings: BT-549
IGROV1 = experiment: panel of 60 human tumor cell lines, growth inhibition (Ovarian Cancer); settings: IGROV1
DU-145 = experiment: panel of 60 human tumor cell lines, growth inhibition (Prostate Cancer)
OVCAR-4 = experiment: panel of 60 human tumor cell lines, growth inhibition (Ovarian Cancer); assay type: cell-based
CAKI-1 = experiment: panel of 60 human tumor cell lines, growth inhibition (Renal Cancer)
NCI/ADR-RES = experiment: panel of 60 human tumor cell lines, growth inhibition (Ovarian Cancer)
MDA-MB-435 = experiment: panel of 60 human tumor cell lines, growth inhibition (Melanoma)
HOP-92 = experiment: panel of 60 human tumor cell lines, growth inhibition (Non-Small Cell Lung Cancer)
NCI-H460 = experiment: as above

C=C1C(=O)O[C@H]2[C@H]1CC/C(COC(=O)OCCCN1CCCCC1)=C\CC[C@@]1(C)O[C@@H]21 [JVM 2-26]
Percent Growth (NCI-H23; Log10 Concentration −4.0): −74% | Percent Growth (NCI-H23; Log10 Concentration −5.0): 65% | Percent Growth (NCI-H23; Log10 Concentration −6.0): 98% | Percent Growth (NCI-H23; Log10 Concentration −7.0): 97% | Percent Growth (NCI-H23; Log10 Concentration −8.0): 93% | Percent Growth (MOLT-4; Log10 Concentration −4.0): −50% | Percent Growth (MOLT-4; Log10 Concentration −5.0): 23% | Percent Growth (MOLT-4; Log10 Concentration −6.0): 93% | Percent Growth (MOLT-4; Log10 Concentration −7.0): 102% | Percent Growth (MOLT-4; Log10 Concentration −8.0): 105% | Percent Growth (UACC-62; Log10 Concentration −4.0): −97% | Percent Growth (UACC-62; Log10 Concentration −5.0): 46% | Percent Growth (UACC-62; Log10 Concentration −6.0): 87% | Percent Growth (UACC-62; Log10 Concentration −7.0): 95% | Percent Growth (UACC-62; Log10 Concentration −8.0): 95% | Percent Growth (SK-OV-3; Log10 Concentration −4.0): −33% | Percent Growth (SK-OV-3; Log10 Concentration −5.0): 90% | Percent Growth (SK-OV-3; Log10 Concentration −6.0): 95% | Percent Growth (SK-OV-3; Log10 Concentration −7.0): 105% | Percent Growth (SK-OV-3; Log10 Concentration −8.0): 93% | Percent Growth (MCF7; Log10 Concentration −4.0): −72% | Percent Growth (MCF7; Log10 Concentration −5.0): 2% | Percent Growth (MCF7; Log10 Concentration −6.0): 77% | Percent Growth (MCF7; Log10 Concentration −7.0): 67% | Percent Growth (MCF7; Log10 Concentration −8.0): 91% | Percent Growth (ACHN; Log10 Concentration −4.0): −92% | Percent Growth (ACHN; Log10 Concentration −5.0): −8% | Percent Growth (ACHN; Log10 Concentration −6.0): 79% | Percent Growth (ACHN; Log10 Concentration −7.0): 94% | Percent Growth (ACHN; Log10 Concentration −8.0): 100% | Percent Growth (HCT-15; Log10 Concentration −4.0): −90% | Percent Growth (HCT-15; Log10 Concentration −5.0): 2% | Percent Growth (HCT-15; Log10 Concentration −6.0): 79% | Percent Growth (HCT-15; Log10 Concentration −8.0): 96% | Percent Growth (SW-620; Log10 Concentration −4.0): −84% | Percent Growth (SW-620; Log10 Concentration −5.0): −5% | Percent Growth (SW-620; Log10 Concentration −6.0): 79% | Percent Growth (SW-620; Log10 Concentration −7.0): 95% | Percent Growth (SW-620; Log10 Concentration −8.0): 99% | Percent Growth (U251; Log10 Concentration −4.0): −85% | Percent Growth (U251; Log10 Concentration −5.0): 89% | Percent Growth (U251; Log10 Concentration −6.0): 99% | Percent Growth (U251; Log10 Concentration −7.0): 97% | Percent Growth (U251; Log10 Concentration −8.0): 95% | Percent Growth (NCI-H226; Log10 Concentration −4.0): −59% | Percent Growth (NCI-H226; Log10 Concentration −5.0): 29% | Percent Growth (NCI-H226; Log10 Concentration −6.0): 88% | Percent Growth (NCI-H226; Log10 Concentration −7.0): 91% | Percent Growth (NCI-H226; Log10 Concentration −8.0): 94% | Percent Growth (OVCAR-8; Log10 Concentration −4.0): −88% | Percent Growth (OVCAR-8; Log10 Concentration −5.0): 52% | Percent Growth (OVCAR-8; Log10 Concentration −6.0): 97% | Percent Growth (OVCAR-8; Log10 Concentration −7.0): 98% | Percent Growth (OVCAR-8; Log10 Concentration −8.0): 96% | Percent Growth (NCI-H522; Log10 Concentration −4.0): −73% | Percent Growth (NCI-H522; Log10 Concentration −5.0): −70% | Percent Growth (NCI-H522; Log10 Concentration −6.0): 71% | Percent Growth (NCI-H522; Log10 Concentration −7.0): 91% | Percent Growth (NCI-H522; Log10 Concentration −8.0): 98% | Percent Growth (BT-549; Log10 Concentration −4.0): −100% | Percent Growth (BT-549; Log10 Concentration −5.0): 21% | Percent Growth (BT-549; Log10 Concentration −6.0): 78% | Percent Growth (BT-549; Log10 Concentration −7.0): 85% | Percent Growth (BT-549; Log10 Concentration −8.0): 93% | Percent Growth (IGROV1; Log10 Concentration −4.0): −65% | Percent Growth (IGROV1; Log10 Concentration −5.0): 66% | Percent Growth (IGROV1; Log10 Concentration −6.0): 102% | Percent Growth (IGROV1; Log10 Concentration −7.0): 96% | Percent Growth (IGROV1; Log10 Concentration −8.0): 100% | Percent Growth (DU-145; Log10 Concentration −4.0): −100% | Percent Growth (DU-145; Log10 Concentration −5.0): 11% | Percent Growth (DU-145; Log10 Concentration −6.0): 90% | Percent Growth (DU-145; Log10 Concentration −7.0): 97% | Percent Growth (DU-145; Log10 Concentration −8.0): 98% | Percent Growth (OVCAR-4; Log10 Concentration −4.0): −90% | Percent Growth (OVCAR-4; Log10 Concentration −5.0): 6% | Percent Growth (OVCAR-4; Log10 Concentration −6.0): 71% | Percent Growth (OVCAR-4; Log10 Concentration −7.0): 63% | Percent Growth (OVCAR-4; Log10 Concentration −8.0): 96% | Percent Growth (CAKI-1; Log10 Concentration −4.0): −100% | Percent Growth (CAKI-1; Log10 Concentration −5.0): 8% | Percent Growth (CAKI-1; Log10 Concentration −6.0): 71% | Percent Growth (CAKI-1; Log10 Concentration −7.0): 83% | Percent Growth (CAKI-1; Log10 Concentration −8.0): 90% | Percent Growth (NCI/ADR-RES; Log10 Concentration −4.0): −40% | Percent Growth (NCI/ADR-RES; Log10 Concentration −5.0): 78% | Percent Growth (NCI/ADR-RES; Log10 Concentration −6.0): 96% | Percent Growth (NCI/ADR-RES; Log10 Concentration −7.0): 95% | Percent Growth (NCI/ADR-RES; Log10 Concentration −8.0): 94% | Percent Growth (MDA-MB-435; Log10 Concentration −4.0): −95% | Percent Growth (MDA-MB-435; Log10 Concentration −5.0): 13% | Percent Growth (MDA-MB-435; Log10 Concentration −6.0): 83% | Percent Growth (MDA-MB-435; Log10 Concentration −7.0): 67% | Percent Growth (MDA-MB-435; Log10 Concentration −8.0): 98% | Percent Growth (HOP-92; Log10 Concentration −4.0): −90% | Percent Growth (HOP-92; Log10 Concentration −5.0): −11% | Percent Growth (HOP-92; Log10 Concentration −6.0): 75% | Percent Growth (HOP-92; Log10 Concentration −7.0): 90% | Percent Growth (HOP-92; Log10 Concentration −8.0): 93% | Percent Growth (NCI-H460; Log10 Concentration −4.0): −67% | Percent Growth (NCI-H460; Log10 Concentration −5.0): 83% | Percent Growth (NCI-H460; Log10 Concentration −6.0): 99% | Percent Growth (NCI-H460; Log10 Concentration −7.0): 102% | Percent Growth (NCI-H460; Log10 Concentration −8.0): 102%
